Measured values reported in article PMC7224386.
No constants are given. Whether binding was seen depends on the method and setting. In cells and extracts the contact can be indirect. Some results given as binding are weak or reduced against the parent protein; the word gives no strength. For some assays here: Where a sequence is shown, tags or fusion partners need not be part of it.

By UniProt entry, the sequences of proteins in these tests, tags left out.
UniProt Q9HAU4: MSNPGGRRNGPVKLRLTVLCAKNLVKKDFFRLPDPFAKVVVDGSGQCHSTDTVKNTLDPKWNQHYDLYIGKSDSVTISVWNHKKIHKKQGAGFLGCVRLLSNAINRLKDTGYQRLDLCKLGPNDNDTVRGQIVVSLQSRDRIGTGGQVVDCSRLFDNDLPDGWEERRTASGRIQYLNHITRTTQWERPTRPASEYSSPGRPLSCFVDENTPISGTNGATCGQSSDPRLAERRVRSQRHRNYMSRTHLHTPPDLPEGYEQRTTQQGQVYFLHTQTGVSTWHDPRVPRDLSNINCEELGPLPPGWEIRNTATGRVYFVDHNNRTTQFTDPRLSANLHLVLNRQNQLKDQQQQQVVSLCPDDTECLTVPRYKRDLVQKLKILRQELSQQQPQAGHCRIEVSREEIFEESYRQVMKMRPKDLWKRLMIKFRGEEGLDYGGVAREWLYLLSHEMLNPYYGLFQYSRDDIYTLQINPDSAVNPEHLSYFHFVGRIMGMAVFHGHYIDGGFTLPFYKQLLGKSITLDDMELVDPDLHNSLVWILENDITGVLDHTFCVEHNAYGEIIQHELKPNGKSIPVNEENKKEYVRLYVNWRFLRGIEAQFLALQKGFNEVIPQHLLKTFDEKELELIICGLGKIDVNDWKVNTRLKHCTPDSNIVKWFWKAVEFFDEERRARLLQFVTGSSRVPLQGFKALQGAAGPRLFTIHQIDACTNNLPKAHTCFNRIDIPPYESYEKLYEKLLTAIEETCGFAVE

Columns and labels:
[1] = molecular target: T1, TNF receptor-associated factor 4 (TRAF4), endogenous in MSCs (human (endogenous in MSCs)) (UniProt Q9BUZ4); experiment: co-IP; reciprocal co-IP/western blot of endogenous proteins from MSC extracts in modified RIPA buffer; anti-TRAF4 or anti-Smurf2 (IgG control), protein-G agarose, 4 °C
T1 sequence: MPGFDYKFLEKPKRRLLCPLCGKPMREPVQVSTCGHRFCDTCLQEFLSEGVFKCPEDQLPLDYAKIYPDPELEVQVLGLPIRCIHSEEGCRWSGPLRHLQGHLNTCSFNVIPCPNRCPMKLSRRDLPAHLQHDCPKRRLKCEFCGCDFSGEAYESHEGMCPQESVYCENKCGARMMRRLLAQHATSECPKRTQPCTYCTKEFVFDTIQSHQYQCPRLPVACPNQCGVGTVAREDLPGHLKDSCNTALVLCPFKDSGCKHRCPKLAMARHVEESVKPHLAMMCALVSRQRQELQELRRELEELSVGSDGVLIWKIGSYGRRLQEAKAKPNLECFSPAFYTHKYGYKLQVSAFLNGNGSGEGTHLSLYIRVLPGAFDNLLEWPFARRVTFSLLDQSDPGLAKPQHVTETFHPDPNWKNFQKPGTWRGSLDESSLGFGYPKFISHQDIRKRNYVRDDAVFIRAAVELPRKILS

[2] = molecular target: T2, Myc-TRAF4 (full-length pcDNA3.1(+)-Myc-TRAF4) (human) (UniProt Q9BUZ4); experiment: co-IP; 293T cells co-transfected with Myc-TRAF4 (wild type or deletion mutants) and Flag-Smurf2; extracts in modified RIPA buffer; immunoprecipitation with anti-Myc (reciprocal with anti-Flag for the wild type), western blot
T2 sequence: T1 sequence

Row | Substance | binding [1] | binding [2]
1 | Smad ubiquitination-related factor 2 (Smurf2), endogenous in MSCs (from UniProt Q9HAU4 1-748) | binds | 
2 | Flag-Smurf2 (full-length pcDNA3.1(+)-Flag-Smurf2) (from UniProt Q9HAU4 1-748) |  | binds
